Reference: US20200261427A1 (Al Therapeutics, Inc., priority 2019, published 2020)

Experiment: Antioxidant screen in Transcutol
Assay type: physicochemical
Details: calculated from 4-week data at 40° C.
Protocol: Since there was significant degradation in diethylene glycol monoethyl ether (TC) after 1 week, and TC can generate peroxides, it was selected as the solvent for the antioxidant screen. […] (1) No antioxidant; […] […] The 4-week data at 40° C. was used to calculate the main effects of the two antioxidants and their interaction (Box et al., 1978) for the assay values. The positive effect of BHA (+23.8) was twice the positive effect of Vit. E (+11.6).

Structure (SMILES) | main effect of the antioxidant on rapamycin assay values
Cc1c(C)c2c(c(C)c1O)CCC(C)(CCCC(C)CCCC(C)CCCC(C)C)O2 (racemic) [Vit. E, dl-alpha-tocopherol] | +11.6
COc1ccc(O)c(C(C)(C)C)c1 [BHA, butylated hydroxyanisol] | +23.8
